{"source": "PubChem BioAssay AID686938 (Drosophila RNAi Screening Center, 2013)", "aim": "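Fly genes required for calcium entry once internal stores are emptied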 (primary screen)", "cell system": "Drosophila S2R+ cells", "knock-down reagent": "long dsRNA against Drosophila genes, about 0.25 µg dsRNA per well, roughly 10,000 cells", "timing": "5 days of knock-down before the calcium assay", "conditions": "thapsigargin (SERCA pump blocker) to empty calcium stores; entry signal taken 4 min after adding it", "read-out": "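Per-well fluo-4 fluorescence in two replicates, unnormalised, measured in resting cells and 4 min after store depletion by the SERCA blocker thapsigargin; ratio of the two present in few wells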", "scale": "calcium entry signal: higher = stronger calcium signal after store depletion; resting calcium signal: higher = higher resting calcium signal", "units": "calcium entry signal in fluorescence units; resting calcium signal in fluorescence units", "call rule": "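Hit if the duplicate-averaged plate z-score for entry over resting signal is under −3; wells with weak total dye signal (Fmax z < −2) or more than 5 off-targets removed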", "calls": "active = strongly reduced calcium entry; inactive = no strong reduction", "note": "In all, the deposit lists about 23,000 reagents; below is an unselected part of those that have a named target and a result. In the full data, 75 (0.33%) are marked active. 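Raw plate signals without normalisation; calls rest on plate z-scores that were not deposited; ratio present for only 364 wells.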 A plus sign joins genes that one reagent is predicted to hit. The record does not give: the dose of the treatment."}
{"predicted target": "CG7137", "amplicon": "DRSC07017", "calcium entry signal, replicate 1": 2.88e7, "calcium entry signal, replicate 2": 2.68e7, "resting calcium signal, replicate 1": 1.33e7, "resting calcium signal, replicate 2": 1.42e7, "Call": "inactive"}
{"predicted target": "CG43124", "amplicon": "DRSC13867", "calcium entry signal, replicate 1": 3.66e7, "calcium entry signal, replicate 2": 3.72e7, "resting calcium signal, replicate 1": 1.90e7, "resting calcium signal, replicate 2": 1.92e7, "Call": "inactive"}
{"predicted target": "Ude (Uracil-DNA degrading factor)", "amplicon": "DRSC15324", "calcium entry signal, replicate 1": 5.26e7, "calcium entry signal, replicate 2": 4.22e7, "resting calcium signal, replicate 1": 2.47e7, "resting calcium signal, replicate 2": 1.85e7, "Call": "inactive"}
{"predicted target": "Gclc (Glutamate-cysteine ligase catalytic subunit)", "amplicon": "DRSC18666", "calcium entry signal, replicate 1": 3.37e7, "calcium entry signal, replicate 2": 4.64e7, "resting calcium signal, replicate 1": 1.98e7, "resting calcium signal, replicate 2": 2.50e7, "Call": "inactive"}
{"predicted target": "CG6023", "amplicon": "DRSC19970", "calcium entry signal, replicate 1": 3.51e7, "calcium entry signal, replicate 2": 3.78e7, "resting calcium signal, replicate 1": 1.54e7, "resting calcium signal, replicate 2": 1.66e7, "Call": "inactive"}
{"predicted target": "Cyt-c1L (Cytochrome c1-like)", "amplicon": "DRSC14860", "calcium entry signal, replicate 1": 2.71e7, "calcium entry signal, replicate 2": 3.15e7, "resting calcium signal, replicate 1": 1.40e7, "resting calcium signal, replicate 2": 1.51e7, "Call": "inactive"}
{"predicted target": "Cyt-c1L (Cytochrome c1-like)", "amplicon": "DRSC22096", "calcium entry signal, replicate 1": 3.49e7, "calcium entry signal, replicate 2": 5.17e7, "resting calcium signal, replicate 1": 1.77e7, "resting calcium signal, replicate 2": 2.92e7, "Call": "inactive"}
{"predicted target": "swi2", "amplicon": "DRSC06457", "calcium entry signal, replicate 1": 4.18e7, "calcium entry signal, replicate 2": 5.51e7, "resting calcium signal, replicate 1": 2.00e7, "resting calcium signal, replicate 2": 2.60e7, "Call": "inactive"}
{"predicted target": "CG17944", "amplicon": "DRSC12572", "calcium entry signal, replicate 1": 3.90e7, "calcium entry signal, replicate 2": 2.79e7, "resting calcium signal, replicate 1": 1.80e7, "resting calcium signal, replicate 2": 1.36e7, "Call": "inactive"}
{"predicted target": "Set2 (SET domain containing 2)", "amplicon": "DRSC19765", "calcium entry signal, replicate 1": 4.26e7, "calcium entry signal, replicate 2": 4.04e7, "resting calcium signal, replicate 1": 1.83e7, "resting calcium signal, replicate 2": 1.76e7, "Call": "inactive"}

2 of these entries, reformatted:
predicted target	amplicon	calcium entry signal, replicate 1	calcium entry signal, replicate 2	resting calcium signal, replicate 1	resting calcium signal, replicate 2	Call
Ude (Uracil-DNA degrading factor)	DRSC15324	5.26e7	4.22e7	2.47e7	1.85e7	inactive
Gclc (Glutamate-cysteine ligase catalytic subunit)	DRSC18666	3.37e7	4.64e7	1.98e7	2.50e7	inactive

Additional results follow:
{"predicted target": "CG30457", "amplicon": "DRSC06661", "calcium entry signal, replicate 1": 4.84e7, "calcium entry signal, replicate 2": 1.71e7, "resting calcium signal, replicate 1": 2.17e7, "resting calcium signal, replicate 2": 9.74e6, "Call": "inactive"}
{"predicted target": "NK7.1", "amplicon": "DRSC16755", "calcium entry signal, replicate 1": 3.01e7, "calcium entry signal, replicate 2": 3.47e7, "resting calcium signal, replicate 1": 1.39e7, "resting calcium signal, replicate 2": 1.63e7, "Call": "inactive"}
{"predicted target": "CG34450", "amplicon": "DRSC17822", "calcium entry signal, replicate 1": 3.87e7, "calcium entry signal, replicate 2": 4.67e7, "resting calcium signal, replicate 1": 1.88e7, "resting calcium signal, replicate 2": 2.19e7, "Call": "inactive"}
{"predicted target": "PolH (DNA polymerase eta)", "amplicon": "DRSC11800", "calcium entry signal, replicate 1": 3.76e7, "calcium entry signal, replicate 2": 5.15e7, "resting calcium signal, replicate 1": 1.91e7, "resting calcium signal, replicate 2": 3.38e7, "Call": "inactive"}
{"predicted target": "CG43068", "amplicon": "DRSC05538", "calcium entry signal, replicate 1": 4.44e7, "calcium entry signal, replicate 2": 5.56e7, "resting calcium signal, replicate 1": 2.04e7, "resting calcium signal, replicate 2": 2.21e7, "Call": "inactive"}
{"predicted target": "Blimp-1", "amplicon": "DRSC10496", "calcium entry signal, replicate 1": 3.27e7, "calcium entry signal, replicate 2": 4.57e7, "resting calcium signal, replicate 1": 1.61e7, "resting calcium signal, replicate 2": 2.11e7, "Call": "inactive"}
{"predicted target": "scramb1 (scramblase 1)", "amplicon": "DRSC09724", "calcium entry signal, replicate 1": 2.98e7, "calcium entry signal, replicate 2": 3.48e7, "resting calcium signal, replicate 1": 1.59e7, "resting calcium signal, replicate 2": 1.65e7, "Call": "inactive"}
{"predicted target": "scramb1 (scramblase 1)", "amplicon": "DRSC10667", "calcium entry signal, replicate 1": 2.63e7, "calcium entry signal, replicate 2": 3.58e7, "resting calcium signal, replicate 1": 1.49e7, "resting calcium signal, replicate 2": 1.65e7, "Call": "inactive"}
{"predicted target": "scramb1 (scramblase 1)", "amplicon": "DRSC10668", "calcium entry signal, replicate 1": 2.92e7, "calcium entry signal, replicate 2": 3.48e7, "resting calcium signal, replicate 1": 1.63e7, "resting calcium signal, replicate 2": 1.53e7, "Call": "inactive"}
{"predicted target": "Shawn + Tyler", "amplicon": "DRSC19564", "calcium entry signal, replicate 1": 2.09e7, "calcium entry signal, replicate 2": 2.83e7, "resting calcium signal, replicate 1": 1.13e7, "resting calcium signal, replicate 2": 1.24e7, "Call": "inactive"}
{"predicted target": "Shawn + Tyler", "amplicon": "DRSC19565", "calcium entry signal, replicate 1": 4.01e7, "calcium entry signal, replicate 2": 3.55e7, "resting calcium signal, replicate 1": 2.08e7, "resting calcium signal, replicate 2": 1.63e7, "Call": "inactive"}
